In PubChem BioAssay AID1347075 (National Center for Advancing Translational Sciences (NCATS), 2019):
Screen size: about 400,000 compounds; about 5,500 (1.4%) were called active. This list was built around the results that the source calls inconclusive (neither active nor inactive); the mix of calls is not that of the screen. Calls follow the shape of the dose curve; as a rule, active = well fitted cell-killing curve with a large enough effect; inconclusive = small, poorly fitted or top-dose-only effect, or effect the other way; inactive = flat fitted curve, though single readings scatter. Potencies beside an inconclusive call are fits to weak or partial responses and may not hold up.

Experiment: qHTS assay for MDR1-selective chemotherapeutics: Primary screen using the parental adenocarcinoma cell KB-3-1; also: nearly all actives have a fitted effect of over 60% in size
Details: KB-3-1 viability, CellTiter-Glo ATP luminescence, 72 h; activity change, negative = cytotoxic: at 46.1 µM (top of the series)
Outline: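 KB-3-1 cells, DMEM (no phenol red) + 10% FBS; compound by pin transfer, 72 h, 37 °C. Readout: CellTiter-Glo luminescence after 10 min. Data normalized, curve-fitted.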
% is scaled to controls: 0 for no effect and ±100 for the full control effect; potency is read from the fitted curve at half-maximal effect.

For `Cc1cc(C)cc(OCC(=O)OCc2nnc(-c3ccccc3)o2)c1`, which Potency is on record?
The Potency was “inactive”.

Which Potency does the source give for `CCc1ccc(N2CCN(C(=O)c3ccc(OC)c(OC)c3)CC2)cc1` here?
The Potency was inconclusive: 18.4 µM [cytotoxic, single point].

With `CCN(CC)S(=O)(=O)c1ccc(O)c(NC(=O)COc2ccc(S(=O)(=O)N3CCOCC3)cc2)c1` as the compound, how does the Potency read?
The Potency was inconclusive: 29.1 µM [cytotoxic, single point].

For `COc1ccc(C=C2C=C(C(C)(C)C)C(=O)C(C(C)(C)C)=C2)cc1OC`, which Potency is on record?
Its Potency is inconclusive: 16.4 µM [cytotoxic, single point].

For `O=C(NCCc1cccs1)c1ccc(CS(=O)Cc2cccc(Cl)c2)o1` (centres undefined), which Potency is on record?
Its Potency is “inactive”.

Which Potency does the source give for `Cn1c(NC(=O)c2ccco2)c(-c2ccc(Cl)cc2)c(=O)c2ccccc21` here?
The Potency was inconclusive: 6.51 µM [rising, partial curve, poor fit].

Which Potency does the source give for `CC(=O)c1ccc(NC(=O)c2cn(C)c(=O)c3ccccc23)cc1` here?
Its Potency is “inactive”.

With `Cc1ccc(-c2csc(N3CCN(c4cc5c(cc4Cl)nc(-c4ccncc4)n5CCOCCO)CC3)n2)cc1` as the compound, how does the activity change, negative = cytotoxic read?
The activity change, negative = cytotoxic was inconclusive: -33.7% [cytotoxic].

With `CC1Cc2ccccc2N1C(=O)CSc1nnnn1Cc1ccccc1` (centres undefined) as the compound, how does the Potency read?
The Potency was inconclusive: 32.6 µM [cytotoxic, single point].

Which Potency does the source give for `CCOC(=O)c1cnc2c(C)c(Cl)ccc2c1N1CCN(CC)CC1` here?
The Potency was “inactive”.

Which Potency does the source give for `O=C(Nc1ccc2c(c1)OCCO2)c1ccc(Cl)c(S(=O)(=O)N2CCOCC2)c1` here?
The Potency was “inactive”.

For `C/C(=N\N(Cc1ccccc1)c1ccccc1)c1cccnc1`, which Potency is on record?
The Potency was “inactive”.

For `COC(=O)c1cccc(NC(=O)c2cccs2)c1C`, which Potency is on record?
The Potency was “inactive”.

For `N=c1nc2n(cc1F)C1OC(CO)C(O)C1O2` (centres undefined), which Potency is on record?
Its Potency is inconclusive: 2.59 µM [cytotoxic, full curve].

For `O=C(Nc1cccc2ccccc12)N1CCCN(c2c(Cl)cncc2Cl)CC1`, which Potency is on record?
Its Potency is inconclusive: 0.0065 µM [cytotoxic, full curve].

With `CC(C)n1cnc2c(NCc3ccccc3)cc(N[C@H](C)CO)cc21` as the compound, how does the Potency read?
Its Potency is inconclusive: 20.6 µM [cytotoxic, single point].

For `COc1cc([N+](=O)[O-])ccc1N/C=C/C(=O)c1cccs1`, which Potency is on record?
Its Potency is active: 5.17 µM.

With `c1ccc(CNc2ncnc3[nH]ncc23)cc1` as the compound, how does the Potency read?
Its Potency is inconclusive: 29.1 µM [cytotoxic, single point].

Which Potency does the source give for `C=C(C)C(=O)N1CC2(CC(c3cccc(NC(=O)c4ccccc4)c3)=NO2)C[C@@H]1C(N)=O` (some centres undefined) here?
The Potency was inconclusive: 13 µM [rising, partial curve].

With `Cc1ccc(S(=O)(=O)N(C)CCCC(=O)Nc2ccc(C)cc2C)cc1` as the compound, how does the Potency read?
The Potency was “inactive”.

Which Potency does the source give for `COc1ccc(C)cc1NC(=O)CSc1nc2ccccc2nc1N1CCCC1` here?
The Potency was inconclusive: 18.4 µM [cytotoxic, single point].

Which Potency does the source give for `O=C(NCCc1ccc(Cl)cc1)c1cc(-c2ccccn2)nc2ccccc12` here?
Its Potency is inconclusive: 29.1 µM [cytotoxic, single point].

With `COc1ccc(/C=N/NC(=O)c2ccoc2C)cc1COc1c(C)cccc1C` as the compound, how does the Potency read?
Its Potency is inconclusive: 20.6 µM [cytotoxic, single point].

With `O=C1CSC(c2ccc(Cl)cc2)N1C1CCCCC1` (centres undefined) as the compound, how does the Potency read?
The Potency was inconclusive: 23.1 µM [cytotoxic, single point].

With `CCOc1ccc(NC(=O)CCNc2c(N3CCCC3)c(=O)c2=O)cc1` as the compound, how does the Potency read?
The Potency was inconclusive: 29.1 µM [cytotoxic, single point].

Which Potency does the source give for `CCc1nc(Sc2nc(C)cc(C)n2)c2oc3ccccc3c2n1` here?
The Potency was inconclusive: 18.4 µM [cytotoxic, single point].

For `COc1ccc(N2CCN(C(=O)c3c(C)nn(-c4ccc(F)cc4)c3-n3cccc3)CC2)cc1`, which Potency is on record?
The Potency was inconclusive: 29.1 µM [cytotoxic, single point].

For `O=C(Nc1cccc(Br)c1)c1cccc(OC(=S)N2CCOCC2)c1`, which Potency is on record?
The Potency was inconclusive: 23.1 µM [cytotoxic, partial curve].

For `CNc1nc(Nc2ccc(C)c(Cl)c2)c2cnn(C)c2n1`, which Potency is on record?
Its Potency is inconclusive: 18.4 µM [cytotoxic, single point].

With `CC(C)c1ccc(S(=O)(=O)Nc2cc3c(cc2NCc2ccccc2)n(C)c(=O)n3C)cc1` as the compound, how does the Potency read?
The Potency was active: 23.1 µM.

Which Potency does the source give for `COc1ccc2c3n([n+]([O-])c2c1)CCN=C3c1cc(Cl)c(N)c(Cl)c1` here?
Its Potency is inconclusive: 29.1 µM [cytotoxic, single point].

With `COc1ccccc1NS(=O)(=O)c1ccc2oc(SC)nc2c1` as the compound, how does the Potency read?
The Potency was inconclusive: 20.6 µM [cytotoxic, single point].

Which Potency does the source give for `O=C(CSc1nc(-c2ccccc2)[nH]c1-c1ccc(F)cc1)NC1CCCC1` here?
Its Potency is “inactive”.

Which Potency does the source give for `CCn1c2c(c(=N)c3ccccc31)CCC2` here?
The Potency was inconclusive: 7.31 µM [cytotoxic, partial curve, poor fit].

Which Potency does the source give for `COCCN(C(=O)COC(=O)c1c(NC(C)=O)sc(C)c1C)c1c(N)n(Cc2ccccc2)c(=O)[nH]c1=O` here?
Its Potency is inconclusive: 29.1 µM [rising, single point].

With `CCCCN(C(=O)CSc1cc(C)c2ccccc2n1)c1c(N)n(Cc2ccccc2)c(=O)[nH]c1=O` as the compound, how does the Potency read?
Its Potency is “inactive”.

With `O=C(Nn1nnnc1Nc1ccccc1)C12CC3CC(CC(C3)C1)C2` as the compound, how does the Potency read?
The Potency was inconclusive: 20.6 µM [cytotoxic, single point].

For `COCCCNC(=S)N1CCN(c2nc(C)nc3sc4c(c23)CCCC4)CC1`, which Potency is on record?
Its Potency is inconclusive: 16.4 µM [cytotoxic, partial curve, poor fit].

Which Potency does the source give for `Cc1ccc(CC(=O)NNC(=O)c2cccs2)cc1C` here?
Its Potency is “inactive”.

With `CC(C)(C)c1cnnn1-c1ccc(C(=O)CCl)cc1` as the compound, how does the Potency read?
Its Potency is inconclusive: 29.1 µM [cytotoxic, single point].

For `S=C(NCc1ccco1)Nc1ccccc1Cl`, which Potency is on record?
The Potency was “inactive”.

For `O=C(CN1C(=O)COc2ccc(S(=O)(=O)N3CCCCCC3)cc21)N1CCN(c2cccc(Cl)c2)CC1`, which Potency is on record?
Its Potency is “inactive”.

Which Potency does the source give for `Cc1ccc(NC(=O)C2C3C=CC4(O3)C2C(=O)N(CCCN2CCCCC2)C4C(=O)NC2CCCCC2)cc1Cl` (centres undefined) here?
The Potency was inconclusive: 0.651 µM [rising, full curve, poor fit].

For `Cc1c2n(c3ccccc13)CC/C2=N\O`, which Potency is on record?
The Potency was inconclusive: 13 µM [cytotoxic, partial curve].

With `CCc1ccc(S(=O)(=O)Nc2c(C)nn(C)c2C)cc1` as the compound, how does the Potency read?
The Potency was inconclusive: 35.5 µM [cytotoxic, single point].

Which Potency does the source give for `Cc1ccc2sc(N(CCCN(C)C)C(=O)CCS(=O)(=O)c3ccccc3)nc2c1C` here?
The Potency was active: 16.4 µM.

With `Cc1ccc(C)c(N2CCN(S(=O)(=O)c3ccc4c(c3)CC(C)N4C(=O)C3CC3)CC2)c1` (centres undefined) as the compound, how does the Potency read?
Its Potency is inconclusive: 29.1 µM [cytotoxic, single point].

With `Cc1cc(=O)nc2c3ccccc3n(C(C)C(=O)Nc3c(F)c(F)c(F)c(F)c3F)n12` (centres undefined) as the compound, how does the Potency read?
Its Potency is inconclusive: 32.6 µM [rising, single point].

With `Cc1sc(NC(=S)NC(=O)CCc2ccccc2)c(C(N)=O)c1C` as the compound, how does the Potency read?
The Potency was active: 0.184 µM.

For `COc1ccccc1N1CCN(C(=O)CSc2nc(C)c(Cc3ccccc3)c(=O)[nH]2)CC1`, which Potency is on record?
Its Potency is inconclusive: 16.4 µM [cytotoxic, single point].

Which Potency does the source give for `CCc1ccc(Nc2n[n+](-c3ccccc3)c(-c3cccc(C)c3)s2)cc1` here?
Its Potency is inconclusive: 23.1 µM [cytotoxic, single point].

With `Cc1ccc(NC(=O)C2CCN(S(=O)(=O)c3c(C)noc3/C=C/c3ccco3)CC2)nc1` as the compound, how does the Potency read?
Its Potency is inconclusive: 8.2 µM [cytotoxic, partial curve].

Which Potency does the source give for `COc1ccc(/C=C/C(=O)C2(O)CCCCC2)cc1OC` here?
Its Potency is inconclusive: 20.6 µM [cytotoxic, single point].

For `CCCCCCSc1cc(C)nc2ncnn12`, which Potency is on record?
Its Potency is “inactive”.

Which Potency does the source give for `CCOC(=O)C1(Cc2cccc(F)c2)CCN(CCCn2cccn2)CC1` here?
Its Potency is “inactive”.

Which Potency does the source give for `Cc1cc2ncc(-c3ncc(C(F)(F)F)cc3Cl)cn2n1` here?
Its Potency is inconclusive: 29.1 µM [cytotoxic, single point].

For `Cc1nc2c3cc(Cl)ccc3n(CCN3CCOCC3)c2s1`, which Potency is on record?
Its Potency is inconclusive: 16.4 µM [cytotoxic, partial curve, poor fit].

Which Potency does the source give for `O=C(NCCN1CCOCC1)c1cc(-c2ccco2)on1` here?
The Potency was inconclusive: 29.1 µM [cytotoxic, single point].

For `Cc1[nH]nc2c1C(c1cccc(O)c1)C1=C(CC(C)(C)CC1=O)N2` (centres undefined), which Potency is on record?
Its Potency is inconclusive: 20.6 µM [rising, partial curve].

Which Potency does the source give for `O=C(Nc1cccc(OC(F)(F)F)c1)C1Cc2c(-c3cccc(F)c3)ccnc2O1` (centres undefined) here?
The Potency was inconclusive: 29.1 µM [cytotoxic, single point].

With `O=C(COc1ccccc1C(=O)Nc1ccccc1)Nc1cccc([N+](=O)[O-])c1` as the compound, how does the activity change, negative = cytotoxic read?
The activity change, negative = cytotoxic was inconclusive: -33.2%.

For `CCOC(=O)Cn1c(=NC(=O)CSC(C)=O)sc2cc(F)ccc21`, which Potency is on record?
The Potency was inconclusive: 16.4 µM [rising, partial curve].

Which Potency does the source give for `CC(=O)Nc1ccc(-c2ccnc3c2CC(C(=O)Nc2ccc(Cl)c(C(F)(F)F)c2)O3)cc1` (centres undefined) here?
Its Potency is “inactive”.

With `C[C@H](CO)N1C[C@H](C)[C@@H](CN(C)S(=O)(=O)c2cn(C)cn2)Oc2c(NC(=O)Nc3ccc4c(c3)OCO4)cccc2C1=O` as the compound, how does the Potency read?
Its Potency is inconclusive: 0.58 µM [rising, full curve, poor fit].

With `Cc1cc(C(=O)NNC(=O)c2ccccc2O)c(C)o1` as the compound, how does the Potency read?
Its Potency is inconclusive: 29.1 µM [cytotoxic, single point].

Which Potency does the source give for `CCOc1ccc(/C=C/C(=O)Nc2ccc(C(N)=O)cc2)cc1OC` here?
Its Potency is inconclusive: 7.31 µM [rising, partial curve, poor fit].

With `O=C1Nc2ccccc2O/C1=C\c1ccccc1Br` as the compound, how does the Potency read?
Its Potency is “inactive”.

Which Potency does the source give for `CCOC(=O)c1ccn(-c2nc(-c3cccc(OC)c3)cc(C(F)(F)F)n2)n1` here?
Its Potency is “inactive”.

Which Potency does the source give for `CCN(CC)CCn1c(SCC(=O)Nc2ccc3c(c2)CCC3)nc2ccccc2c1=O` here?
The Potency was “inactive”.
